Results reported in paper PMC6081419 (Nature Communications, 2018).
Residue numbers refer to the chain shown, from its start. Names and notes keep the numbering of the source. No constants are given. Whether binding was seen depends on the method and setting. In cells and extracts the contact can be indirect. Sequences can lack the tags named with a protein.

Target: T1, WT hBest1-GFP (human) (UniProt O76090)
T1 sequence: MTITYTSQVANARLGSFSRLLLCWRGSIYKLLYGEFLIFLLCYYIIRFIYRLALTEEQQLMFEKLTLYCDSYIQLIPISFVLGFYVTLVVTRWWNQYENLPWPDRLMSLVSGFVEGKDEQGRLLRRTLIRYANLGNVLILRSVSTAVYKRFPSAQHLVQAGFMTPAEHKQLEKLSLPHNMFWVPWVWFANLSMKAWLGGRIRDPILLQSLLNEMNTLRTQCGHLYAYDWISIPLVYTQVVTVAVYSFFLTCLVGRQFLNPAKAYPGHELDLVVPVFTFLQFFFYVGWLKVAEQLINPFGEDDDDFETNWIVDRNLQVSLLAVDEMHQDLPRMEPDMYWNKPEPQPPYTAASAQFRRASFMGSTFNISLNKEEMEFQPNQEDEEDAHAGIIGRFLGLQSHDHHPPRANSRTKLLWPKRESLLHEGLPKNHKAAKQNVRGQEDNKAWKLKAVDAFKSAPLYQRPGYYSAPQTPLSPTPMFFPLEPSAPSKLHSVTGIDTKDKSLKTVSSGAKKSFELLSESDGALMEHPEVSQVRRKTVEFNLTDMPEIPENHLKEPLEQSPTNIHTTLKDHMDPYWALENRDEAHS
Experiment: co-IP; lysate of hBest1 P274R iPSC-RPE 48 h after BacMam baculovirus infection; 50 mM Tris-HCl, 150 mM NaCl, 1% NP-40; GFP antibody and protein G beads, 1 h at 4 °C; blot with hBest1 antibody

- binding: no binding
B1: endogenous hBest1 P274R (protein, UniProt O76090 1-585)
chain: T1 sequence with P274R
